Experimental data: EP0362382A1, “METHOD OF STERILIZING PLANT POLLEN” (VSESOJUZNY NAUCHNO-ISSLEDOVATELSKY INST. SELSKOKHOZYAISTV. …, priority 1988, dated 1989)
Some entries share one result that the patent states for a list of compounds.

What was measured:
Sonnenblume = experiment: Field test of chemical sterilisation of sunflower pollen; format: in vivo; details: Sonnenblume der angegebenen Sorten
Excerpt: (§1) Die gametozide Aktivitat der erfindungsgemäßen Sterilisationsmittel war im Feldversuch in verschiedenen bodenklimatischen Zonen mit Teilstücken von 10 m^2 Größe in drei- bis viermaliger Wiederholung festgestellt. Jedes Sterilisationsmittel wurde mindenstens 5 Jahre lang geprüft.
(§2) Die Entwicklung der Perioden der Organogenese wird zytologisch überwacht. Die Behandlung von Pflanzen mit dem Sterilisationsmittel erfolgt am Anfang der fünften Periode der Organogenese nach Kupermann.
Zur Kontrolle der chemischen Sterilisation des Sonnenblumenpollens werden für jede Verbindung 45 behandelte Pflanzen jeder Wiederholung benutzt, wobei 15 Pflanzen von denen zwecks Selbsbestäubung isoliert werden, Blütenkorbchen anderer 15 Pflanzen mit einem Pollengemisch, gesammelt von 20 bis 25 behandelten isolierten Körbchen, bestäubt werden, und 15 Pflanzen für freie Bestäubung gelassen werden, damit das Ansetzen von Achänen mit dem Pollen der väterlichen Form kontrolliert werden kann.
Man beurteilt die Pollensterilität von Pflanzen der Sonnenblume nach der Pollenfertilität und -keimfähigkeit, nach den morphologischen Besonderheiten von Spermien und nach der Fähigkeit von Achänen zum Ansetzen bei der Bestäubung der behandelten isolierten Pflanzen mit dem Pollen der unbehandelten väterlichen Form. Die Lebensfähigkeit der Eizelle wird nach der Samenbildung von behandelten Pflanzen bei freier Bestäubung mit der väterlichen Form bestimmt.
Man behandelt die Sonnenblume Sorte BHNNMK 8931 (WNIIMK 8931) in der V. Periode der Organogenese mit 0,5%iger wäßriger Emulsion von 4-Karboxybutyldezylsulfid, mit 1%iger Emulsion der δ, δ' -Sulfonyldivaleriansäure, 2%iger Emulsion von Bis(2-äthylhexyläther) der δ, δ' -Thiodivaleriansäure; die Sonnenblume der Linie BK-373 (WK-373) mit 2%iger Emulsion von Bis(2-äthylhexyläther) der δ δ' --Thiodivaleriansäure, mit 0,2%iger Emulsion von Bis(di--n-butyläther) der δ, δ' -Thiodivaleriansäure; die Sonnenblume der Linie BK=364 (WK-365) mit 2%iger wäßriger Emulsion von Bis(2-äthylhexyläther) der δ, δ' -Thirodivaleriansäure, mit 0,2%iger Emulsion von Bis(di-n-butyläther) der δ, δ' -Thiodivaleriansäure. Die Emulsion enthält 0,1 Masse% Kalziumalkylbenzolsulfonat mit 12 bis 14 Kohlenstoffatomen und 0,01 Masse% Dimethylsulfoxid. Als Kontrolle dienen Pflanzen, behandelt mit einem Verdünner ohne Sterilisationsmittel. Die Prüfergebnisse sind in der Tabelle 17 angegeben. […] Periode der Organogenese erhalten.

Hirse = experiment: Field test of gametocidal activity (sterilisation of anthers), millet; format: in vivo; details: Sorte K-9693 Kormowoe 1
Excerpt: as §1, §2
Mit dem Ährenschieben verwirklicht man die Isolierung von Hauptähren und anderen Stockwerken in Pergamentbeuteln. Bei Weizen und Tritikale werden Einzelisolatoren benutzt. Bei Roggen schließt man je Ähre 5 bis 7 verschiedene nebeneinander befindliche Pflanzen unter einen gemeinsamen Isolator ein. Bei Hierse wird jede Rispe getrennt isoliert. Der Sterilitätsprozentsatz (X) für Weizen, Roggen, Tritikale und Hirse wird nach der Formel [formula] ermittelt.
Die Kornzahl in nicht isolierten Ähren von Kontrollpflanzen wird bedingt für 100 % Ansetzen bei freier Bestäubung angenommen.
Um zuverlässige Angaben zu erhalten, verwendet man 20 bis 25 Isolatoren jeder Wiederholung für Weizen und Tritikale, 10 .bis 15 Isolatoren jeder Wiederholung für Roggen und Hirse. […]

Row | Compound | Ergebnisse bei der Behandlung in der VI. Periode der Organogenese (Sonnenblume) | Ergebnisse bei der Behandlung in der VI. Periode der Organogenese (Hirse)
1 | CCCCCCCCCCSCCCCC(=O)O [Beispiel 75, 4-Karboxybutyldezylsulfid] | ähnlichen Ergebnisse | 
2 | CCCCC(CC)COC(=O)CCCCSCCCCC(=O)OCC(CC)CCCC (centres unmarked) [Beispiel 77, Bis(2-äthylhexyläther) der δ, δ' -Thiodivaleriansäure] | ähnlichen Ergebnisse | 
3 | CCCCOC(=O)CCCCSCCCCC(=O)OCCCC [Beispiel 79, Bis(di--n-butyläther) der δ, δ' -Thiodivaleriansäure] | ähnlichen Ergebnisse | 
4 | O=C(O)CCCCS(=O)(=O)CCCCC(=O)O [Beispiel 76, δ, δ' -Sulfonyldivaleriansäure] | ähnlichen Ergebnisse | 
5 | Bis(di-n-butyläther) der δ, δ' -Thiodivaleriansäure [Beispiel 73] |  | ähnlichen Ergebnisse
